Measurements taken from article PMC5520850.
Results are given in words; binding and its absence hold for the method and conditions named. Binding seen in cells or lysates may run through a third protein. Some entries that bind do so weakly or less than the wild type.

Tests used:
[1] = target: T1, eIF4G2 (UniProt P78344); assay: co-IP; eIF4G2 and YTHDF3 with different epitope tags co-expressed in 293 cells; precipitation with anti-Flag or anti-HA antibodies (reciprocal)
T1 sequence: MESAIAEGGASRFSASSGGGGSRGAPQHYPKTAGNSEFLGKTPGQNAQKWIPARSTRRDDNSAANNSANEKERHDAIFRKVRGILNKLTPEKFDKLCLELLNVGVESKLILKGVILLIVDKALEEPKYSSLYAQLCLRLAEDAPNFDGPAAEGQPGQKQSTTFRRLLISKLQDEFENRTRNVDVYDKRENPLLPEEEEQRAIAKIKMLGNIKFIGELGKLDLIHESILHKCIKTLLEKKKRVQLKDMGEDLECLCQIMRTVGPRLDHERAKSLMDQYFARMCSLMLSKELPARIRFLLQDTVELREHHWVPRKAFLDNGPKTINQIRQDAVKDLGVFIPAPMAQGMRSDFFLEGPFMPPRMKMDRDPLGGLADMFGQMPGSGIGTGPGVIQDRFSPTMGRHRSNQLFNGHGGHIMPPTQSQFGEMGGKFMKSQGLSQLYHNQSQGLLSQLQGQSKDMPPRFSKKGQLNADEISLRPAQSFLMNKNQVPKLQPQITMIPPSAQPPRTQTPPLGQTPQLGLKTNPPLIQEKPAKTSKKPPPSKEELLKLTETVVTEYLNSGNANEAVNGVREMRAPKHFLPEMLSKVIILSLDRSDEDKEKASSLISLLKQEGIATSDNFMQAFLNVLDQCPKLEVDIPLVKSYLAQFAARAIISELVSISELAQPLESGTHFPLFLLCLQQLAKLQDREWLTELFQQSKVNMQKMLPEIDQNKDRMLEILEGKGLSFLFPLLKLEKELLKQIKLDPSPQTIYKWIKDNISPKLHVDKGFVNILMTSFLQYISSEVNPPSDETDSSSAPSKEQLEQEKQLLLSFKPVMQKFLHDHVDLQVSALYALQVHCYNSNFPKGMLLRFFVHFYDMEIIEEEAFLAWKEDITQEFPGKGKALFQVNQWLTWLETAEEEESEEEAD

[2] = target: T2, YTHDF3 (UniProt Q7Z739); assay: as above
T2 sequence: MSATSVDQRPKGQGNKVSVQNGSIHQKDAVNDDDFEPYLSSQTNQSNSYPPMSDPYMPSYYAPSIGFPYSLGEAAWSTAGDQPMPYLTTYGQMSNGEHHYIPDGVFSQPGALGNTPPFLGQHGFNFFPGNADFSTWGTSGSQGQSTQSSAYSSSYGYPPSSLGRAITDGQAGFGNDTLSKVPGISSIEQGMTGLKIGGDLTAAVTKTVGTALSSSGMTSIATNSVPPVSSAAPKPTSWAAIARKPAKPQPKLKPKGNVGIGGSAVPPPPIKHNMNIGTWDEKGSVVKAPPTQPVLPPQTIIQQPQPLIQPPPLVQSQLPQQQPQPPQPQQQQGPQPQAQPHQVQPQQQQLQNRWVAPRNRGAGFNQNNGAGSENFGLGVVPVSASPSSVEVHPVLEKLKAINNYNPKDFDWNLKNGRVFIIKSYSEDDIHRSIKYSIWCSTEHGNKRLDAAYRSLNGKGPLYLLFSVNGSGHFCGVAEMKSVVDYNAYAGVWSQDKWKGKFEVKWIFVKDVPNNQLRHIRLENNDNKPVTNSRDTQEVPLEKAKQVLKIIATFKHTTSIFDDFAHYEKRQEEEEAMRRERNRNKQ

Binder | binding [1] | binding [2]
YTHDF3 (protein, UniProt Q7Z739 1-585) MSATSVDQRPKGQGNKVSVQNGSIHQKDAVNDDDFEPYLSSQTNQSNSYPPMSDPYMPSYYAPSIGFPYSLGEAAWSTAGDQPMPYLTTYGQMSNGEHHYIPDGVFSQPGALGNTPPFLGQHGFNFFPGNADFSTWGTSGSQGQSTQSSAYSSSYGYPPSSLGRAITDGQAGFGNDTLSKVPGISSIEQGMTGLKIGGDLTAAVTKTVGTALSSSGMTSIATNSVPPVSSAAPKPTSWAAIARKPAKPQPKLKPKGNVGIGGSAVPPPPIKHNMNIGTWDEKGSVVKAPPTQPVLPPQTIIQQPQPLIQPPPLVQSQLPQQQPQPPQPQQQQGPQPQAQPHQVQPQQQQLQNRWVAPRNRGAGFNQNNGAGSENFGLGVVPVSASPSSVEVHPVLEKLKAINNYNPKDFDWNLKNGRVFIIKSYSEDDIHRSIKYSIWCSTEHGNKRLDAAYRSLNGKGPLYLLFSVNGSGHFCGVAEMKSVVDYNAYAGVWSQDKWKGKFEVKWIFVKDVPNNQLRHIRLENNDNKPVTNSRDTQEVPLEKAKQVLKIIATFKHTTSIFDDFAHYEKRQEEEEAMRRERNRNKQ | binds | 
eIF4G2 (protein, UniProt P78344 1-907) MESAIAEGGASRFSASSGGGGSRGAPQHYPKTAGNSEFLGKTPGQNAQKWIPARSTRRDDNSAANNSANEKERHDAIFRKVRGILNKLTPEKFDKLCLELLNVGVESKLILKGVILLIVDKALEEPKYSSLYAQLCLRLAEDAPNFDGPAAEGQPGQKQSTTFRRLLISKLQDEFENRTRNVDVYDKRENPLLPEEEEQRAIAKIKMLGNIKFIGELGKLDLIHESILHKCIKTLLEKKKRVQLKDMGEDLECLCQIMRTVGPRLDHERAKSLMDQYFARMCSLMLSKELPARIRFLLQDTVELREHHWVPRKAFLDNGPKTINQIRQDAVKDLGVFIPAPMAQGMRSDFFLEGPFMPPRMKMDRDPLGGLADMFGQMPGSGIGTGPGVIQDRFSPTMGRHRSNQLFNGHGGHIMPPTQSQFGEMGGKFMKSQGLSQLYHNQSQGLLSQLQGQSKDMPPRFSKKGQLNADEISLRPAQSFLMNKNQVPKLQPQITMIPPSAQPPRTQTPPLGQTPQLGLKTNPPLIQEKPAKTSKKPPPSKEELLKLTETVVTEYLNSGNANEAVNGVREMRAPKHFLPEMLSKVIILSLDRSDEDKEKASSLISLLKQEGIATSDNFMQAFLNVLDQCPKLEVDIPLVKSYLAQFAARAIISELVSISELAQPLESGTHFPLFLLCLQQLAKLQDREWLTELFQQSKVNMQKMLPEIDQNKDRMLEILEGKGLSFLFPLLKLEKELLKQIKLDPSPQTIYKWIKDNISPKLHVDKGFVNILMTSFLQYISSEVNPPSDETDSSSAPSKEQLEQEKQLLLSFKPVMQKFLHDHVDLQVSALYALQVHCYNSNFPKGMLLRFFVHFYDMEIIEEEAFLAWKEDITQEFPGKGKALFQVNQWLTWLETAEEEESEEEAD |  | binds
